Source: paper PMC12026858
Results are given in words; binding and its absence hold for the method and conditions named. In cells and extracts the contact can be indirect. Some binding calls cover weakened binding; strength is not graded here.

Amino acid sequences for entries named in this document (tags omitted).
UniProt O00762: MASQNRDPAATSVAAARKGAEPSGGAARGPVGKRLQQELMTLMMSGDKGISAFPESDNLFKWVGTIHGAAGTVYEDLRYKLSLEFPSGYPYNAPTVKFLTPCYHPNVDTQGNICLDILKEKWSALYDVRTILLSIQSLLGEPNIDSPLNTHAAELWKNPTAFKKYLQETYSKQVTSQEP

Molecular target: UbcH10 (human (endogenous in HEK 293)) (UniProt O00762)
Assay: co-IP; HEK 293 cells transfected with p53-WT and ubiquitin-HA; total protein immunoprecipitated with anti-UbcH10 antibody, Western blot with anti-p53 antibody

Question: For p53-WT (from UniProt P04637 1-393), which binding is on record?
Answer: binds
